# Out of some 220,000 compounds screened, about 770 (0.35%) were called active. Rule as the data show it: active = binding response below about 49% or above about 150%; inconclusive = no clear call, values can overlap the other calls; inactive = in between. Inconclusive means that the source gave no clear call.
# Sequences of proteins named here, by UniProt entry; tags and fusion partners are left off.
# UniProt P09471, whole entry, looked up: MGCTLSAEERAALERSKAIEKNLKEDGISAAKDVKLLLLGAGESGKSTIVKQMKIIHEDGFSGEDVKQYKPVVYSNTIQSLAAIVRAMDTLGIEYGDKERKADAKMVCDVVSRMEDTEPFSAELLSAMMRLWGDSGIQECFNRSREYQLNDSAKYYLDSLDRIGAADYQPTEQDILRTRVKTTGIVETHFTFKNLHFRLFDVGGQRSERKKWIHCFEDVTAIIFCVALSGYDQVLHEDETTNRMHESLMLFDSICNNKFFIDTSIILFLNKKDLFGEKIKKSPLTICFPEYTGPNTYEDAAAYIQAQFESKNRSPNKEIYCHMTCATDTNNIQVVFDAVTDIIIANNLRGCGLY
# Target: Guanine nucleotide-binding protein G(o) subunit alpha (Homo sapiens) (UniProt P09471)
# Assay: RGS7-Galphao binding modulators, primary screen, biochemical, multiplexed bead flow cytometry (AID 1439);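 also: fluorescent Galphao held in activated GDP-AlF4 state binding bead-coupled RGS7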
# Details: at 10 µM, actives lie on both sides
row,SMILES,binding response (% of control)
1,CC(C)(C)c1ccc2c(c1)OC(C(=O)N/N=C\c1ccc(-c3cccc(C(=O)O)c3)o1)CO2 (stereo unspecified),inconclusive: 152%
